In doi:10.1101/2024.09.20.612365, “Preventing Inappropriate Signals Pre- and Post-Ligand Perception by a Toggle-Switch Mechanism of ERECTA” (bioRxiv, 2024) one finds binding data, which are given here for one substance.

Test [1] deals with T1, GST-BKI1 (BRI1 KINASE INHIBITOR 1) (Arabidopsis) (UniProt Q9FMZ0).
T1 sequence: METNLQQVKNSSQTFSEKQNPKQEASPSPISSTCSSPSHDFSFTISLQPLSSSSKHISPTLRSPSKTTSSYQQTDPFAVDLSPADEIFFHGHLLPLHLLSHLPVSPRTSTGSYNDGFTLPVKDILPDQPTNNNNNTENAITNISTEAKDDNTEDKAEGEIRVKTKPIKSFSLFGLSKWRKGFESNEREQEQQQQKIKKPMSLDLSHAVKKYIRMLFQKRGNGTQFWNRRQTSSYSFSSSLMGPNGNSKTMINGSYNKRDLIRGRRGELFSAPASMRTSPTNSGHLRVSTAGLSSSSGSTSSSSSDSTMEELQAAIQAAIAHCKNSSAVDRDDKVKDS
Description: condition: 10,000 nM (highest of the seven concentrations); BLI; recombinantly purified GST-BKI1 or GST-PUB30 and MBP-ER_CD variants at seven concentrations (156.25, 312.5, 625, 1,250, 2,500, 5,000 and 10,000 nM); representative of three independent experiments; both purified.

The target of test [2] is T2, GST-PUB30 (plant U-box E3 ligase PUB30) (Arabidopsis, UniProt Q058P4 1-448).
T2 construct: U-box E3 ubiquitin ligase PUB30, Arabidopsis; source: recombinantly purified
T2 sequence (looked up): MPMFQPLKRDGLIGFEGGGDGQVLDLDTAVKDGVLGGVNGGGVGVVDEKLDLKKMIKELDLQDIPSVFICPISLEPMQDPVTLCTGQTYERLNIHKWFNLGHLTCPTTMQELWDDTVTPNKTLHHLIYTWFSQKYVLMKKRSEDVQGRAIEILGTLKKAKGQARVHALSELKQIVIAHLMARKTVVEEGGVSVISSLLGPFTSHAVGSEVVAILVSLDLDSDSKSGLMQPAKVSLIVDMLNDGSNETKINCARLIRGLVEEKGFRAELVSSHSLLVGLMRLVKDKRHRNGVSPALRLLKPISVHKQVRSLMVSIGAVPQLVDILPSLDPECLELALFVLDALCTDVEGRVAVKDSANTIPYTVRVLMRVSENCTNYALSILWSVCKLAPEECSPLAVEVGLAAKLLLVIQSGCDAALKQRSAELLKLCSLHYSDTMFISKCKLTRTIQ
Described as above.

Results are given in words; binding and its absence hold for the method and conditions named. Where a sequence is shown, tags or fusion partners need not be part of it.

Take “MBP-ER_CD_(ΔC43) (Arabidopsis) (domain or fragment)”: the binding entry in test [1] and in test [2] was “no binding” each time.
